# Melanoma cell counts after drug treatment

From a melanoma drug combination screen (doi:10.1371/journal.pone.0140310); values rounded.

Compounds and concentrations:
ZM336372 (10000 nM): Cc1ccc(NC(=O)c2cccc(N(C)C)c2)cc1NC(=O)c1ccc(O)cc1
vincristine (0.5 nM): CC[C@]1(O)C[C@H]2CN(CCc3c([nH]c4ccccc34)[C@@](C(=O)OC)(c3cc4c(cc3OC)N(C=O)[C@H]3[C@@](O)(C(=O)OC)[C@H](OC(C)=O)[C@]5(CC)C=CCN6CC[C@]43[C@@H]65)C2)C1
tamatinib (2000 nM): COc1cc(Nc2ncc(F)c(Nc3ccc4c(n3)NC(=O)C(C)(C)O4)n2)cc(OC)c1OC
fludarabine (1000 nM): Nc1nc(F)nc2c1ncn2[C@@H]1O[C@H](CO)[C@@H](O)[C@@H]1O
T0901317 (7000 nM): O=S(=O)(c1ccccc1)N(CC(F)(F)F)c1ccc(C(O)(C(F)(F)F)C(F)(F)F)cc1
ENMD-2076 (200 nM): Cc1cc(Nc2cc(N3CCN(C)CC3)nc(/C=C/c3ccccc3)n2)n[nH]1
A-769662 (10000 nM): N#Cc1c(O)c2c(-c3ccc(-c4ccccc4O)cc3)csc2[nH]c1=O
PF-04217903 (5000 nM): OCCn1cc(-c2cnc3nnn(Cc4ccc5ncccc5c4)c3n2)cn1
GW0742 (10000 nM): Cc1cc(SCc2sc(-c3ccc(C(F)(F)F)c(F)c3)nc2C)ccc1OCC(=O)O
GW9662 (10000 nM): O=C(Nc1ccccc1)c1cc([N+](=O)[O-])ccc1Cl
nutlin-3 (500 nM): COc1ccc(C2=N[C@@H](c3ccc(Cl)cc3)[C@@H](c3ccc(Cl)cc3)N2C(=O)N2CCNC(=O)C2)c(OC(C)C)c1
U73122 (2000 nM): COc1ccc2c(c1)CCC1C2CCC2(C)C(NCCCCCCN3C(=O)C=CC3=O)CCC12 (centres undefined)
tipifarnib (50 nM): Cn1cncc1[C@@](N)(c1ccc(Cl)cc1)c1ccc2c(c1)c(-c1cccc(Cl)c1)cc(=O)n2C
dasatinib (20 nM): Cc1nc(Nc2ncc(C(=O)Nc3c(C)cccc3Cl)s2)cc(N2CCN(CCO)CC2)n1
AZD7762 (100 nM): NC(=O)Nc1cc(-c2cccc(F)c2)sc1C(=O)N[C@H]1CCCNC1
AS-252424 (5000 nM): O=C1NC(=O)/C(=C/c2ccc(-c3ccc(F)cc3O)o2)S1
MK-2206 (2000 nM): NC1(c2ccc(-c3nc4ccn5c(=O)[nH]nc5c4cc3-c3ccccc3)cc2)CCC1
SNS-032 (50 nM): CC(C)(C)c1cnc(CSc2cnc(NC(=O)C3CCNCC3)s2)o1
SU6656 (2000 nM): CN(C)S(=O)(=O)c1ccc2c(c1)/C(=C/c1cc3c([nH]1)CCCC3)C(=O)N2
ruxolitinib (5000 nM): N#CC[C@H](C1CCCC1)n1cc(-c2ncnc3[nH]ccc23)cn1

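Human melanoma cells were exposed to a pair of drugs for 72 h in 1,536-well plates and read by automated microscopy after fixing and staining. Values are the number of DAPI-stained nuclei as a percentage of the DMSO control: 100 is no effect, lower means fewer cells. Concentrations were fixed for each drug; these are the higher of two levels. No replicate spread is given; individual values may be noisy.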
Only some of the drugs and lines screened are listed, without regard to their results.
A dash means that no value is listed here.

| # | Pair | COLO 792 | WM451Lu | COLO 800 | COLO 829 |
|---|---|---|---|---|---|
| 1 | SU6656 + A-769662 | 93.0 | - | 54.0 | 85.2 |
| 2 | T0901317 + SU6656 | 75.0 | - | 53.0 | 64.4 |
| 3 | T0901317 + dasatinib | 40.8 | - | 60.1 | 46.0 |
| 4 | ENMD-2076 + GW9662 | 76.9 | - | 46.1 | 64.8 |
| 5 | T0901317 + AZD7762 | 72.3 | - | 59.9 | 86.0 |
| 6 | SNS-032 + AS-252424 | 86.1 | - | 99.9 | 136 |
| 7 | GW0742 + nutlin-3 | 99.2 | - | 124 | 64.1 |
| 8 | SNS-032 + SU6656 | 62.9 | - | 47.3 | 76.9 |
| 9 | ZM336372 + PF-04217903 | 131 | - | 85.0 | 116 |
| 10 | ENMD-2076 + fludarabine | 57.8 | - | 92.1 | 70.1 |
| 11 | ruxolitinib + tamatinib | 22.2 | - | 50.3 | 71.9 |
| 12 | ruxolitinib + PF-04217903 | 81.8 | - | 105 | 113 |
| 13 | GW0742 + ENMD-2076 | 103 | - | 103 | 77.9 |
| 14 | SU6656 + AS-252424 | 74.5 | - | 47.6 | 73.8 |
| 15 | tipifarnib + U73122 | 80.5 | - | 48.2 | 96.5 |
| 16 | T0901317 + ENMD-2076 | 70.0 | - | 75.1 | 66.4 |
| 17 | dasatinib + ruxolitinib | 51.9 | - | 55.7 | 66.0 |
| 18 | tamatinib + GW9662 | 35.0 | 77.9 | 34.0 | 61.7 |
| 19 | GW9662 + AZD7762 | 40.2 | - | 29.8 | 62.2 |
| 20 | vincristine + PF-04217903 | 89.7 | - | 104 | 81.4 |
| 21 | ZM336372 + A-769662 | 114 | - | 98.0 | 110 |
| 22 | tamatinib + A-769662 | 56.4 | - | 49.8 | 90.7 |
| 23 | GW0742 + ruxolitinib | 87.6 | - | 226 | 101 |
| 24 | vincristine + SU6656 | 55.3 | - | 28.4 | 61.0 |
| 25 | U73122 + nutlin-3 | 101 | - | 77.0 | 85.0 |
| 26 | AS-252424 + dasatinib | 41.2 | - | 38.9 | 52.6 |
| 27 | ENMD-2076 + AS-252424 | 72.6 | - | 122 | 117 |
| 28 | MK-2206 + ENMD-2076 | 49.5 | - | 39.3 | 75.8 |
| 29 | tipifarnib + T0901317 | 79.2 | - | 91.7 | 87.2 |
| 30 | U73122 + dasatinib | 48.0 | - | 56.6 | 69.9 |
| 31 | ruxolitinib + tipifarnib | 101 | - | 84.9 | 111 |
| 32 | ENMD-2076 + U73122 | 74.4 | - | 57.3 | 77.7 |
| 33 | PF-04217903 + SNS-032 | 91.9 | - | 50.9 | 97.7 |
| 34 | GW0742 + MK-2206 | 70.6 | - | 67.5 | 73.3 |

Some entries from above, unchanged:

Pair	COLO 792	WM451Lu	COLO 800	COLO 829
SU6656 + AS-252424	74.5	-	47.6	73.8
ENMD-2076 + U73122	74.4	-	57.3	77.7